Laboratory results: paper PMC6626044, “Molecular basis of egg coat cross-linking sheds light on ZP1-associated female infertility” (Nature Communications, 2019)
No constants are given. Whether binding was seen depends on the method and setting. For part of these data: In cells and extracts the contact can be indirect. For part of these data: Where a sequence is shown, tags or fusion partners need not be part of it. Each block holds one binder with its values, some of them ahead of it.

What was measured:
[1] = target: human ZP1 trefoil domain and ZP module, hZP1_(A195-P590) (human) (UniProt P60852); assay: SEC-MALS; Superdex 75 Increase 10/300 GL, 10 mM Na-HEPES pH 7.8, 150 mM NaCl, 0.4 mL/min; calibrated with BSA; both purified
[2] = target: T1, human ZP4 ZP-N1 domain, 6His-tagged (human) (UniProt Q12836); assay: pull-down; conditioned medium of cells co-expressing the 6His- and Myc-tagged forms, Ni-NTA beads, 20 mM Na-HEPES pH 7.8, 100 mM NaCl, 10 mM imidazole, 1 h at RT; PNGase F, immunoblot with anti-5His and anti-Myc
T1 sequence: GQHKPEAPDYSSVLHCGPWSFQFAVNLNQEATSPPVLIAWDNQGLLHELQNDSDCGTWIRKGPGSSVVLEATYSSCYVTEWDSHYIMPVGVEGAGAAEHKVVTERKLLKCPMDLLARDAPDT

[3] = target: T1, human ZP4 ZP-N1 domain, 6His-tagged (human); assay: SEC; IMAC-purified protein, analytical SEC at 4 °C in 20 mM Na-HEPES pH 7.8, 150 mM NaCl (HiLoad 26/600 Superdex 75 pg or Superdex 75 Increase 10/300 GL), fractions on Coomassie-stained SDS-PAGE; both purified

binding [1]: no binding
B1: human ZP1 trefoil domain and ZP module, hZP1_(A195-P590) (domain or fragment, UniProt P60852 195-590)
chain: ALPSPGPGPTLATLAQPHWGTLEHWDVNKRDYIGTHLSQEQCQVASGHLPCIVRRTSKEACQQAGCCYDNTREVPCYYGNTATVQCFRDGYFVLVVSQEMALTHRITLANIHLAYAPTSCSPTQHTEAFVVFYFPLTHCGTTMQVAGDQLIYENWLVSGIHIQKGPQGSITRDSTFQLHVRCVFNASDFLPIQASIFPPPSPAPMTQPGPLRLELRIAKDETFSSYYGEDDYPIVRLLREPVHVEVRLLQRTDPNLVLLLHQCWGAPSANPFQQPQWPILSDGCPFKGDSYRTQMVALDGATPFQSHYQRFTVATFALLDSGSQRALRGLVYLFCSTSACHTSGLETCSTACSTGTTRQRRSSGHRNDTARPQDIVSSPGPVGFEDSYGQEPTLGP

binding [2]: no binding
B2: human ZP4 ZP-N1 domain, Myc-tagged (domain or fragment, UniProt Q12836 19-140)
chain: T1 sequence

binding [3]: no binding
B3: human ZP4 ZP-N1 domain, 6His-tagged (domain or fragment, UniProt Q12836 19-140)
chain: T1 sequence
